The list is a part of this screen's results and no random one: it gathers tests that were run many times, whatever their T/C, doses with no T/C, and many T/C values between a quarter and a half above the control. Further doses and runs are listed elsewhere. T/C: endpoint of the treated group in % of that of the vehicle group. Some doses have a count of surviving animals in place of a T/C: the source holds a T/C of zero for them, seemingly a mark for toxic or unscored doses. Some doses without a T/C left all or most animals alive at the check, yet need not have been tolerated: the source hardly ever lists a survival T/C far under the control, and the zero likely stands for such cases as well. Counts of survivors are from the toxicity check (mostly the fifth day) where no day follows; animals may have died later. Schedules are NCI's codes, taken here to give the interval after Q, in days (D) or hours (H), and the number of doses after X. Brackets with × give the number of equal values in this list. Some entries were tested several times; the results are listed from low to high. For survival time, this PubChem deposit counts one and a half times the control or more as active, and values a quarter to a half above the control carry no call in these data; other NCI protocols may use other cut-offs. Some T/C values are followed by the survivors on the day toxicity was checked, most often the fifth; where none is given, no animal had died by that day.
System: BDF1 mice, B16 melanoma ip, median survival T/C
Experiment: NCI In Vivo Anticancer Drug Screen. Data for tumor model B16 Melanoma (intraperitoneal) in B6D2F1 (BDF1) mice
Conditions: T/C endpoint: median survival time, higher T/C = longer survival
Procedure, shortened: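 Transplantable tumor model; survival or tumor size measured; reported as T/C, treated over vehicle control.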

[1] = dose: 25.0 mg/kg/injection, schedule: Q01DX009 (ip), vehicle: saline with Tween-80
[2] = dose: 6.25 mg/kg/injection, schedule: Q01DX009 (ip), vehicle: Klucel (hydroxypropylcellulose) (HPC)
[3] = dose: 50.0 mg/kg/injection, schedule: Q01DX009 (ip), vehicle: Klucel (hydroxypropylcellulose) (HPC)
[4] = dose: 100.0 mg/kg/injection, schedule: Q01DX009 (ip), vehicle: Klucel (hydroxypropylcellulose) (HPC)
[5] = dose: 200.0 mg/kg/injection, schedule: Q01DX009 (ip), vehicle: Klucel (hydroxypropylcellulose) (HPC)
[6] = dose: 100.0 mg/kg/injection, schedule: Q01DX009 (ip), vehicle: saline with Tween-80
[7] = dose: 400.0 mg/kg/injection, schedule: Q01DX009 (ip), vehicle: Klucel (hydroxypropylcellulose) (HPC)

For CCCCCCCCCCCCCCCCCC(=O)[O][Hg][c]1ccccc1, the survivor count [1] was 4 of 6.

In the case of N#Cc1ccccc1N=NNc1ccccc1C#N, the survivor count [2] is reported as 10 of 10, the survivor count (dose: 25.0 mg/kg/injection, schedule: Q01DX009 (ip), vehicle: Klucel (hydroxypropylcellulose) (HPC)) is reported as 3 of 10 and the survivor count [3] is reported as 3 of 10. The survivor count [4] was 0 of 10 and the survivor count [5] was 0 of 10.

In the case of N#CC(c1ccccc1)N1CCCCC1 (stereo not drawn), the survivor count [5] is reported as 9 of 10.

With Cc1cc(C)c(NC(=O)Nc2ccccc2C)c(C)c1 the survivor count (dose: 200.0 mg/kg/injection, schedule: Q04DX003 (ip), vehicle: Klucel (hydroxypropylcellulose) (HPC)) was 10 of 10 and the survivor count (dose: 400.0 mg/kg/injection, schedule: Q04DX003 (ip), vehicle: Klucel (hydroxypropylcellulose) (HPC)) was 9 of 10.

With CCCCN(C)/N=N/c1nc[nH]c1C(N)=O the survivor count (dose: 40.0 mg/kg/injection, schedule: Q01DX009 (ip), vehicle: carboxymethylcellulose (CMC)) was 6 of 6, the survivor count (dose: 80.0 mg/kg/injection, schedule: Q01DX009 (ip), vehicle: carboxymethylcellulose (CMC)) was 6 of 6 and the survivor count [6] was 10 of 10. For the same compound, the survivor count (dose: 160.0 mg/kg/injection, schedule: Q01DX009 (ip), vehicle: carboxymethylcellulose (CMC)) was 3 of 6 and the survivor count (dose: 200.0 mg/kg/injection, schedule: Q01DX009 (ip), vehicle: saline with Tween-80) was 10 of 10.

CCC1(C)c2cc(C)c(C(C)=O)cc2C(C)(C)C1C (stereo not drawn) was tested, and the survivor count [6] was 10 of 10.

In the case of O=C(C[n+]1ccc2ccccc2c1)c1ccccc1, the survivor count (dose: 100.0 mg/kg/injection, schedule: Q01DX009 (ip), vehicle: saline) is reported as 0 of 6.

For COc1cc2c(cc1OC)C(CCc1ccc(Cl)cc1)N(C)CC2 (stereo not drawn), the survivor count [7] was 0 of 10.

In the case of CCOC(=O)Cc1ccccn1, the T/C [4] is reported as 130 % of control, the T/C [5] is reported as 134 % of control and the T/C [7] is reported as 134 % of control.

F[B-](F)(F)F was tested, and the T/C (dose: 400.0 mg/kg/injection, schedule: Q01DX009 (ip), vehicle: gum acacia) was 125 % of control.

C1CCC(C2OCCO2)CC1 was tested, and the survivor count (dose: 400.0 mg/kg/injection, schedule: Q01DX009 (ip), vehicle: saline) was 10 of 10.

For C=CC(=O)N1CN(C(=O)C=C)CN(C(=O)C=C)C1, the T/C (dose: 6.25 mg/kg/injection, schedule: Q01DX009 (ip), vehicle: saline with Tween-80) was 131 % of control, the T/C (dose: 12.5 mg/kg/injection, schedule: Q01DX009 (ip), vehicle: saline with Tween-80) was 126 % of control [9 of 10 alive] and the survivor count [1] was 0 of 10.

COC1=C(C)C(=O)C2=C(C1=O)C(CO)N1C(C#N)C3CC4C(C1C2N1CCOC41)N3C (stereo not drawn) was tested, and the survivor count (dose: 2.0 mg/kg/injection, schedule: Q01DX009 (ip), vehicle: saline + alcohol) was 6 of 10.

In the case of O=C(N/N=C/c1ccc(O)cc1O)c1cccnc1, the survivor count (dose: 6.25 mg/kg/injection, schedule: Q01DX009 (ip), vehicle: olive oil, sesame oil, peanut oil) is reported as 10 of 10 (2×), the survivor count (dose: 12.5 mg/kg/injection, schedule: Q01DX009 (ip), vehicle: olive oil, sesame oil, peanut oil) is reported as 10 of 10 (2×) and the survivor count (dose: 25.0 mg/kg/injection, schedule: Q01DX009 (ip), vehicle: olive oil, sesame oil, peanut oil) is reported as 10 of 10. For the same compound, the survivor count (dose: 50.0 mg/kg/injection, schedule: Q01DX009 (ip), vehicle: olive oil, sesame oil, peanut oil) was 9 of 10 and 10 of 10, the survivor count (dose: 100.0 mg/kg/injection, schedule: Q01DX009 (ip), vehicle: olive oil, sesame oil, peanut oil) was 9 of 10 and 10 of 10 and the survivor count (dose: 200.0 mg/kg/injection, schedule: Q01DX009 (ip), vehicle: olive oil, sesame oil, peanut oil) was 1 of 10 and 7 of 10.

In the case of NNC(=S)N/N=C/c1ccc([N+](=O)[O-])s1, the survivor count [2] is reported as 10 of 10, the survivor count (dose: 12.5 mg/kg/injection, schedule: Q01DX009 (ip), vehicle: Klucel (hydroxypropylcellulose) (HPC)) is reported as 10 of 10 and the survivor count [3] is reported as 10 of 10. The survivor count [5] was 10 of 10 and the survivor count [7] was 10 of 10.

CCC1=C(C)c2cc3[n-]c(cc4nc(cc5[n-]c(cc1n2)c(C)c5CCC(=O)OC)C(CCC(=O)OC)=C4C)c(C)c3CC.[Ni+2] was tested, and the survivor count (dose: 18.75 mg/kg/injection, schedule: Q01DX009 (ip), vehicle: saline with Tween-80) was 10 of 10, the survivor count (dose: 37.5 mg/kg/injection, schedule: Q01DX009 (ip), vehicle: saline with Tween-80) was 9 of 10 and the survivor count (dose: 75.0 mg/kg/injection, schedule: Q01DX009 (ip), vehicle: saline with Tween-80) was 10 of 10.

With O=C(Nc1ccc(F)cc1)NC1CCCCC1 the survivor count [7] was 6 of 6.

With CC(=O)NC1=C(N2CC2C)C(=O)C(NC(C)=O)=C(N2CC2C)C1=O (stereo not drawn) the survivor count (dose: 2.5 mg/kg/injection, schedule: Q01DX009 (ip), vehicle: saline) was 7 of 10 and the survivor count (dose: 5.0 mg/kg/injection, schedule: Q01DX009 (ip), vehicle: saline) was 10 of 10.

— PubChem BioAssay AID192 (DTP/NCI, 2004)
